Measurements: PubChem BioAssay AID493014 (National Center for Advancing Translational Sciences (NCATS), 2011)
Hit rate of the full screen: of about 340,000 compounds, about 170 (0.05%) were called active. The shares of active, inactive and inconclusive entries below differ from those in the screen. Calls follow the shape of the dose curve; as a rule, active = well fitted inhibition curve with a large enough effect in the signal ratio, with a control signal flat (not every such curve was filed as active); inconclusive = small, poorly fitted or top-dose-only effect, or effect the other way, or a change in a side signal; inactive = flat fitted curve, though single readings scatter; the % refers to the signal ratio. Where the call is inconclusive, the potency comes from a doubtful curve fit.

Assay: qHTS Assay to Find Inhibitors of Chronic Active B-Cell Receptor Signaling;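 as to activity change, negative = inhibition: plate controls were basal doxycycline-induced cells for no effect and cells given 10 µM MG132 for full effect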
Settings: ABC-DLBCL IkBa-CBG/CBR reporter, luminescence ratio (green luciferase fused to IkBa over red control in TMD8 lymphoma cells), 4 h; activity change, negative = inhibition: at 46.1 µM (top of the series)
Source text: NIH Molecular Libraries Probe Production Network [MLPCN] NIH Chemical Genomics Center [NCGC] MLPCN Grant: 1 R03 DA031086-01A1 PI Name: Dr. R. Eric Davis NCGC Assay Overview: Diffuse large B-cell lymphoma (DLBCL) is the most common category of non-Hodgkin lymphoma, with ~20,000 new cases per year in the United States. DLBCL should be regarded as a collection of different neoplasms. Microarray gene expression analysis has defined two principal types of DLBCL, named for their similarity to normal B cell stages or activation states: a germinal center B-cell (GCB) type, and an activated B-cell (ABC) type. In ABC-DLBCL, a constitutive high-level activity of the NF-kappaB family of transcription factors has been observed (1) and NF-kappaB target genes are more highly expressed in ABC primary tumors than in GCB tumors. Functional studies have shown a constitutive high-level activity of the IkappaB (inhibitor of kappa-B) kinase (IKK) complex. […] Further analysis of DLBCL primary tumors for NF-kappaB target gene expression imply that although CARD11 is required for constitutive IKK activity in all ABC-DLBCL lines, mutations in CARD11 may be the root cause of IKK activation only in lines or tumors with such mutations. In other words, CARD11 mutations may explain NF-kappaB activation in only 10% of ABC-DLBCL cases. […] This process has been termed 'chronic active BCR signaling' (CABS). The goal of this screen is to find small-molecule inhibitors of the CABS pathway found in ABC-DLBCL lines using a cell-based assay that measures IkappaBalpa stability, which has already been extensively validated in the OCI-Ly3 line (PubChem AID:445; REF: 4). […] The assay uses green (CBG68) and red (CBR) emitting beetle luciferases [Chroma-GloTM developed by Promega Corp.] where the green luciferase is fused to IkappaBalpha and the red luciferase is present in its native state. Both luciferase genes are stably present in the TMD8 human ABC DLBCL cell line, but their expression is under the control of tetracycline-inducible promoters. Following the addition of doxycycline to induce expression of the luciferases, the green luminescence in control cultures rises only slowly because the CBG fusion partner IkappaBalpha is targeted by IKK activity for rapid degradation. In contrast, green luminescence rises rapidly in the presence of proteasome inhibitors or IKK inhibitors. The rise in red luminescence of CBR is not affected by proteasome or IKK inhibitors, and serves as normalization for cell number and nonspecific effects. Compounds were screened as a concentration-titration series that ranged from 46 uM to 3 nM.
NCGC Assay Protocol Summary: Cells were seeded in 1536-well plates at 5000 cells/4uL in IMDM medium containing 0.5% FBS, w/o phenol red, 1% penicillin/streptomycin. Then, 23 nL of compounds or DMSO were delivered to each well using a pin tool. One uL 20ng/ml doxycycline was then dispensed into white solid 1536-well plates and the plates were incubated at 37C/5% C02 in a cell incubator for 4 hrs. Then 4 uL luminescent substrate mix (in-house prepared: 150 mM Tris-Cl, pH 7.6, 3 mM MgCl2, 1% Triton X-100, 5 mM DTT, 0.2 mM CoA, 0.15 mM ATP, 5 mM D-luciferin, final concentrations) was added to each well. The plate was incubated at r.t. for 10-15 min. The plates were measured on a ViewLux plate reader for green luminescence (540/20 nm filter) and red luminescence (618/8 nm filter). The green and red luminescent signals were corrected for red and green luminescence filter overlap using previously determined filter calibration constants (determined using the procedure outlined in the Promega Technical Manual; REF 4). The %Activity was determined from the ratio of corrected green/red luminescent values. MG132 were used as control. […] Red luminescent %Activity was normalized to the difference between red luminesence in basal cells (0%Activity) and zero luminescence (-100% Activity). […]
Potency is read from the fitted curve at half-maximal effect.

SMILES	Potency	activity change, negative = inhibition
COc1ccc(C(=O)Nc2ccccc2C(=O)O)cc1Cl	inconclusive: 1.64 µM [rising, partial curve, poor fit]	
CC(C)c1onc(C(=O)N2CCN(C(c3ccccc3)c3ccccc3)CC2)c1[N+](=O)[O-]		inactive: 1.97%
C=CCN1C(=O)N(/C=C/C)c2cccc3cccc1c23	inconclusive: 6.51 µM [falling, partial curve]	
CCOC(=O)N/N=C/c1ccc(OCCSc2ccc(Cl)cc2)c(OC)c1		inactive: -0.42%
CCc1cc2c(=O)oc(-c3ccc(F)cc3)nc2s1	inconclusive: 12.6 µM [falling, partial curve]	
Cc1ccc(Cn2c(SCC(=O)Nc3cc(C)on3)nc3ccccc3c2=O)cc1		inactive: 2.97%
Cc1nn(-c2ccccc2)c(C)c1/C=N/NC(=O)c1cc(-c2cccs2)[nH]n1	active: 18.4 µM	
N#CC1=C(N)NC(=S)C(C(N)=O)C1c1ccc([N+](=O)[O-])cc1 (configuration not stated)		inconclusive: -1.83%
O=C(Nc1nnc(-c2ccco2)o1)C1CCCCC1		inactive: 0.941%
c1ccc(CSc2nnc(-c3cccs3)o2)cc1		inconclusive: 3.23%
COc1ccc(CC(=O)N/N=C/c2cccnc2)cc1OC		inactive: -5.43%
COCCn1c(C)nnc1SCC(=O)NNC(=O)c1ccc(Br)cc1		inactive: -2.74%
COC(=O)c1ccc(NC(=O)c2c(NCc3ccc(C)o3)sc3c2CCCC3)cc1	inconclusive: 7.94 µM [falling, partial curve]	
C/C(=N\NC(=O)c1nc2ccccn2c1C)c1ccc2c(c1)OCO2		inconclusive: 1.59%
O=C(NCCO)c1ccc2c3n(nc2c1)-c1ccccc1CO3	inconclusive: 11.2 µM [falling, partial curve, poor fit]	
Cc1ccc(Nc2nc(NCCCN3CCOCC3)nc(N)c2[N+](=O)[O-])cc1C	inconclusive: 25.9 µM [falling, single point]	
O=C(Nc1cccc(S(=O)(=O)N2CCOCC2)c1)c1ccco1		inconclusive: 27.3%
O=C(Nc1ccc2nc(-c3ccccn3)[nH]c2c1)C1CCCCC1		inconclusive: 10.9%
COc1ccc(OC)c(NC(=O)c2cccc(N3C(=O)C4C5CCC(C5)C4C3=O)c2)c1 (configuration not stated)		inactive: -0.654%
CCN(CC)S(=O)(=O)c1ccc(C(=O)Nc2nnc(NC(=S)Nc3ccccc3)s2)cc1	inconclusive: 3.55 µM [rising, full curve, poor fit]	
Cc1ccc(N=Nc2c(C)[nH]n(-c3ccccc3)c2=O)c(C)c1	inconclusive: 15.8 µM [rising, partial curve, poor fit]	
COc1cc(/C=C/C(=O)c2ccc(Cl)s2)cc(OC)c1O		inconclusive: 6.11%
CCc1ccc(-c2nc3ccc(Br)cc3c(C(=O)O)c2C)s1		inactive: 6.04%
CCn1c(=O)cc(SCC(=O)Nc2ccc3c(c2)OCO3)c2ccccc21	inconclusive: 18.4 µM [falling, partial curve]	
C(=N\Nc1nc2ccccc2[nH]1)/c1ccccn1		inconclusive: 356%
CSc1nc(N)nc2c1ncn2CC(=O)NCc1ccccc1		inconclusive: -7.92%

SMILES	Potency	activity change, negative = inhibition
O=S(=O)(c1ccc(Cl)cc1)N1CCN(C2CCN(Cc3ccccc3)CC2)CC1	inconclusive: 7.31 µM [rising, partial curve, poor fit]	
CCOCCCNC(=O)C1CCCN(S(=O)(=O)CC)C1 (configuration not stated)		inconclusive: 0.603%
CCOC(=O)c1[nH]c2ccccc2c1CCCN1C(=O)c2ccccc2C1=O		inconclusive: -10.9%
CC1CCc2sc(C(=O)NCc3ccccn3)cc2C1 (configuration not stated)		inactive: 15.3%
O=C(NC(=S)NNC(=O)c1ccccc1O)c1cccs1	inconclusive: 31.6 µM [falling, partial curve]	
CN(CC1CCCO1)S(=O)(=O)c1ccc(C(=O)Nc2nnc(-c3ccccc3)o2)cc1 (configuration not stated)		inconclusive: -18.8%
CC(C)CC(=O)Nc1ccc(C(=O)COC(=O)Cc2n[nH]c(=O)c3ccccc23)cc1		inconclusive: 1.01%
C=CC[C@@H](CC(=O)N(CCO)Cc1ccccc1)C(=O)N[C@H](COC(=O)[C@@H](CC=C)Cc1ccc(F)cc1)c1ccccc1		inconclusive: -14%
CCN1CCc2c(sc(NC(=O)COc3ccccc3)c2C(=O)OC)C1		inactive: 3.04%
CS(=O)(=O)NN1C(=O)c2ccccc2NC1c1ccccc1F (configuration not stated)		inactive: 3.46%
CCOC(=O)/C(C#N)=C/C1=C(N2CCCC2)CC(C)(CC)OC1 (configuration not stated)		inconclusive: 9.27%
O=C(NCCCCc1ccccc1)c1ccccc1	inconclusive: 25.1 µM [falling, partial curve]	
Cc1cccc(NC(=S)NNC(=O)c2ccco2)c1	inconclusive: 23.1 µM [falling, single point]	
O=C(CSc1nc2ccccc2s1)N1CCCCC1	inconclusive: 18.4 µM [falling, single point]	
CCc1nc(NCCC(C)C)c2nnn(Cc3ccccc3)c2n1		inconclusive: 8.56%
COc1cc2[nH]c(=S)n(N(C(C)=O)C(C)=O)c(=O)c2cc1OC		inconclusive: -3.34%
CC(C)c1nc2c(c(=O)c3ccccc3n2C)c(=O)n1-c1ccc(F)cc1		inconclusive: -0.309%
Cc1cc(C)c(OCCN2C(=O)NC(C)(C)C2=O)c(Cl)c1		inconclusive: -13.1%
Nc1ccc(OC(=O)Nc2ccc(O)cc2)cc1	inconclusive: 20 µM [falling, partial curve, poor fit]	
CC1(C)CC(=O)C2=C(C1)Nc1cc3c(cc1C2c1ccc(F)cc1)OCO3 (configuration not stated)		inactive: -1.51%
C=CCc1c(C)nc2c(C)cccc2c1SC(=N)N	inconclusive: 28.2 µM [falling, single point]	
O=C1NC(=O)C(Cc2ccccc2)(c2cccnc2)N1 (configuration not stated)		inconclusive: -13.1%
COc1ccc(N2CCN(C(=O)c3oc4ccccc4c3NC(=O)Cc3ccc(OC)c(OC)c3)CC2)cc1		inactive: -2.56%
CNS(=O)(=O)c1ccc(NC(=O)c2ccccn2)cc1		inconclusive: -23.5%
COc1ccccc1/C=C/C(=O)N1CCN(S(=O)(=O)c2cccs2)CC1		inconclusive: 1.71%
CC1=C(C(=O)Nc2ccccc2)C(c2ccncc2)C(C#N)=C(SCC(=O)NC(C)C)N1 (configuration not stated)		inconclusive: 7.86%

Single values from the entries so far.
`CC(C)CC(=O)Nc1ccc(C(=O)COC(=O)Cc2n[nH]c(=O)c3ccccc23)cc1` | activity change, negative = inhibition: inconclusive: 1.01%
`CNS(=O)(=O)c1ccc(NC(=O)c2ccccn2)cc1` | activity change, negative = inhibition: inconclusive: -23.5%
`C=CC[C@@H](CC(=O)N(CCO)Cc1ccccc1)C(=O)N[C@H](COC(=O)[C@@H](CC=C)Cc1ccc(F)cc1)c1ccccc1` | activity change, negative = inhibition: inconclusive: -14%
